According to publication doi:10.1101/2020.09.23.309831:
These are yes or no findings as the source states them, for the method shown. Binding seen in cells or lysates may run through a third protein. Some binding calls cover weakened binding; strength is not graded here.

Amino acid sequences for entries named in this document (tags omitted).
UniProt Q8X1E6, whole entry: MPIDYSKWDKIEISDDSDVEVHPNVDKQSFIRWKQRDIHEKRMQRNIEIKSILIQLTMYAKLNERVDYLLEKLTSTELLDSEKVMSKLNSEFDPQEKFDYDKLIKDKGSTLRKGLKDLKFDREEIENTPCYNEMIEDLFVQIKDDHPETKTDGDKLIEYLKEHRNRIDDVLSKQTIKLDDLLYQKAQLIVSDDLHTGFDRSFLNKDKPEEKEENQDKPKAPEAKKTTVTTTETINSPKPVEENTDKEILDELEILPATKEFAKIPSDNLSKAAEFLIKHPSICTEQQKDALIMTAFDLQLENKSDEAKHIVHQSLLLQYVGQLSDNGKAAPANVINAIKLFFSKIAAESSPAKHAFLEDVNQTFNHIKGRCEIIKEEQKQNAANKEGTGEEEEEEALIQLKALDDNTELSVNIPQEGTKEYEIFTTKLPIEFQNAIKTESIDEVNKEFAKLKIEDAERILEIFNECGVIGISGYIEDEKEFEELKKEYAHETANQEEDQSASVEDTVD
UniProt P46598, whole entry: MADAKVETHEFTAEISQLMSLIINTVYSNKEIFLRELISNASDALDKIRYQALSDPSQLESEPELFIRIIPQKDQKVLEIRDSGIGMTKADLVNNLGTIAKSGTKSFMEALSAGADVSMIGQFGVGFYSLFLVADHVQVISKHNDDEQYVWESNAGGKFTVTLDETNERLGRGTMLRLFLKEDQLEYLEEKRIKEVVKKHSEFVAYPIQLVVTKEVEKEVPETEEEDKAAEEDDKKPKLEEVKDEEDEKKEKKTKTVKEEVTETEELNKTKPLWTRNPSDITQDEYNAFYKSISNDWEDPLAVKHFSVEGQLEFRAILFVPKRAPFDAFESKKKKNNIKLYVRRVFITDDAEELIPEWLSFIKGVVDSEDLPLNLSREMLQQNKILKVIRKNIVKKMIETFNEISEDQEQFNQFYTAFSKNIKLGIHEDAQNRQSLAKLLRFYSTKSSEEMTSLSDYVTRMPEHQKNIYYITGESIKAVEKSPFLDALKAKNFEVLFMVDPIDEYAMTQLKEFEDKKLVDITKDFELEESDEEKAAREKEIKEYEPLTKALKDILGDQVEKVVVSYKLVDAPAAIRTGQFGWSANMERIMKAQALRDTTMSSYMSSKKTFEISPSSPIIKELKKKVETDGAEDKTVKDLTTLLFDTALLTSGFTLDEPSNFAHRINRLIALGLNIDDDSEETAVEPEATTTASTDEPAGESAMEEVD

Assays:
Test in all cases: co-IP
[1] = target: HA-tagged Aha1 (Candida albicans co-chaperone) (C. albicans)
[2] = target: HA-tagged Sba1 (Candida albicans co-chaperone) (C. albicans)
[3] = target: HA-tagged Cdc37 (Candida albicans co-chaperone) (C. albicans) (UniProt Q8X1E6)
[4] = target: TAP-tagged Sti1 (Candida albicans co-chaperone) (C. albicans)

Measured: binding

Candida albicans heat shock protein 90 (Hsp90), wild type (from UniProt P46598 1-707)
binds: all assays above
